{"source": "PubChem BioAssay AID1159578 (Peter MacCallum Cancer Centre, 2015)", "purpose": "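Knock-downs that alter how fast lymphatic endothelial cells migrate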 (primary screen)", "system": "human lymphatic endothelial cells", "knock-down reagent": "siRNA pool against human genes, 40 nM", "time to read-out": "48 h after transfection", "detection": "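Cells stained with dye and imaged after a scratch; covered wound area and nuclei counted, duplicates averaged, migration set against mock wells and turned into a robust z-score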", "direction": "migration robust z-score: higher = faster migration into the scratch; nuclei per well: higher = more cells in the well", "active means": "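Pools averaging fewer than 3300 nuclei are never called; remaining pools count as changed when migration robust z lies outside -2 to 2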", "meaning of the calls": "active = migration changed; inactive = no migration change, or too few cells", "note": "The whole screen tested about 18,000 reagents; shown is an unselected part. Of all reagents, about 1,030 (5.7%) got an active call. 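Inactive calls also include pools with fewer than 3300 nuclei, whose migration was not assessed.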 The raw values are shown without normalisation. Further read-outs or replicates are left out here."}
{"gene":"FOS (Fos proto-oncogene, AP-1 transcription factor subunit)","migration robust z-score":-0.44,"nuclei per well, duplicate mean":5506,"outcome":"inactive"}
{"gene":"SLC4A1AP","migration robust z-score":-0.52,"nuclei per well, duplicate mean":7947,"outcome":"inactive"}
{"gene":"ZNF579 (zinc finger protein 579)","migration robust z-score":0,"nuclei per well, duplicate mean":4662,"outcome":"inactive"}
{"gene":"XRN1 (5'-3' exoribonuclease 1)","migration robust z-score":0.83,"nuclei per well, duplicate mean":6210,"outcome":"inactive"}
{"gene":"GNAL (G protein subunit alpha L)","migration robust z-score":-1.29,"nuclei per well, duplicate mean":5112,"outcome":"inactive"}
{"gene":"ZBTB47 (zinc finger and BTB domain containing 47)","migration robust z-score":0.24,"nuclei per well, duplicate mean":6218,"outcome":"inactive"}
{"gene":"NOP58 (NOP58 ribonucleoprotein)","migration robust z-score":1,"nuclei per well, duplicate mean":5513,"outcome":"inactive"}
{"gene":"BICD2 (BICD cargo adaptor 2)","migration robust z-score":0.37,"nuclei per well, duplicate mean":6158,"outcome":"inactive"}
{"gene":"ECHDC2 (enoyl-CoA hydratase domain containing 2)","migration robust z-score":1.36,"nuclei per well, duplicate mean":5744,"outcome":"inactive"}
{"gene":"EZHIP (EZH inhibitory protein)","migration robust z-score":1.26,"nuclei per well, duplicate mean":5434,"outcome":"inactive"}
{"gene":"ICA1 (islet cell autoantigen 1)","migration robust z-score":-0.34,"nuclei per well, duplicate mean":4896,"outcome":"inactive"}
{"gene":"ZNF831 (zinc finger protein 831)","migration robust z-score":-0.89,"nuclei per well, duplicate mean":5550,"outcome":"inactive"}
{"gene":"CDIN1 (CDAN1 interacting nuclease 1)","migration robust z-score":-0.23,"nuclei per well, duplicate mean":6680,"outcome":"inactive"}
{"gene":"ZNF518B (zinc finger protein 518B)","migration robust z-score":-1.54,"nuclei per well, duplicate mean":4234,"outcome":"inactive"}
